Paper PMC10284605
No constants are given. Whether binding was seen depends on the method and setting. Binding seen in cells or lysates may run through a third protein. Some entries that bind do so weakly or less than the wild type.

The chains behind the UniProt entries cited, without tags or fusion partners. Where a name states a change or a piece, a line headed by the entry shows the natural chain unless it says otherwise.
UniProt O55242: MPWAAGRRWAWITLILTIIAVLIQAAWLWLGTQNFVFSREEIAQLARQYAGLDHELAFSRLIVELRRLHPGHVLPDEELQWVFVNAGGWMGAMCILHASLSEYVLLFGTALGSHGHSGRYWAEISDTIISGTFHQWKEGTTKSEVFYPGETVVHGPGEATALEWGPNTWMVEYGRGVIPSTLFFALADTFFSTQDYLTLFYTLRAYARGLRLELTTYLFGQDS

Molecular target: S1R-Apex (mouse) (UniProt O55242)
Test: co-IP; Lysate of HeLa cells stably expressing S1R-Apex in 0.2% CHAPS, 50 mM Tris-Cl pH 7.5, 150 mM NaCl, 1 mM EDTA; anti-V5 precipitates S1R-Apex, anti-HA as control; protein-A agarose, 4 C; Western blot

B1: Calnexin (protein, UniProt P27824 21-592)
chain: HDGHDDDVIDIEDDLDDVIEEVEDSKPDTTAPPSSPKVTYKAPVPTGEVYFADSFDRGTLSGWILSKAKKDDTDDEIAKYDGKWEVEEMKESKLPGDKGLVLMSRAKHHAISAKLNKPFLFDTKPLIVQYEVNFQNGIECGGAYVKLLSKTPELNLDQFHDKTPYTIMFGPDKCGEDYKLHFIFRHKNPKTGIYEEKHAKRPDADLKTYFTDKKTHLYTLILNPDNSFEILVDQSVVNSGNLLNDMTPPVNPSREIEDPEDRKPEDWDERPKIPDPEAVKPDDWDEDAPAKIPDEEATKPEGWLDDEPEYVPDPDAEKPEDWDEDMDGEWEAPQIANPRCESAPGCGVWQRPVIDNPNYKGKWKPPMIDNPSYQGIWKPRKIPNPDFFEDLEPFRMTPFSAIGLELWSMTSDIFFDNFIICADRRIVDDWANDGWGLKKAADGAAEPGVVGQMIEAAEERPWLWVVYILTVALPVFLVILFCCSGKKQTSGMEYKKTDAPQPDVKEEEEEKEEEKDKGDEEEEGEEKLEEKQKSDAEEDGGTVSQEEEDRKPKAEEDEILNRSPRNRKPRRE
  binding: binds weakly
